Laboratory results from the supplement of paper PMC10849652.
The list shows a part of the results.

Sequences of proteins named here, by UniProt entry; tags and fusion partners are left off. A change or cut given only in a name is not applied to a line headed by its entry.
UniProt Q13867: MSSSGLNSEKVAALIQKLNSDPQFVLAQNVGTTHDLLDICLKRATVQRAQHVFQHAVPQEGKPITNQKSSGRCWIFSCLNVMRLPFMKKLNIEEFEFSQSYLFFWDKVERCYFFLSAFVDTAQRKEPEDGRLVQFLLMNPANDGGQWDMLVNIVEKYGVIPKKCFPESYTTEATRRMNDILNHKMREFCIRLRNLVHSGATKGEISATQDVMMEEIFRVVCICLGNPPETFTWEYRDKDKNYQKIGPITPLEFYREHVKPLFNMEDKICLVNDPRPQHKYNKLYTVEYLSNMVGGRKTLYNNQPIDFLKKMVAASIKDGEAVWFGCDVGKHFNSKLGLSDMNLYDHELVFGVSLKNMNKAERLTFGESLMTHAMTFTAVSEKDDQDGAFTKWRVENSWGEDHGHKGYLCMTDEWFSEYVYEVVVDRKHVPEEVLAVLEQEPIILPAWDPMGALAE
UniProt Q9NXR7, whole entry, looked up: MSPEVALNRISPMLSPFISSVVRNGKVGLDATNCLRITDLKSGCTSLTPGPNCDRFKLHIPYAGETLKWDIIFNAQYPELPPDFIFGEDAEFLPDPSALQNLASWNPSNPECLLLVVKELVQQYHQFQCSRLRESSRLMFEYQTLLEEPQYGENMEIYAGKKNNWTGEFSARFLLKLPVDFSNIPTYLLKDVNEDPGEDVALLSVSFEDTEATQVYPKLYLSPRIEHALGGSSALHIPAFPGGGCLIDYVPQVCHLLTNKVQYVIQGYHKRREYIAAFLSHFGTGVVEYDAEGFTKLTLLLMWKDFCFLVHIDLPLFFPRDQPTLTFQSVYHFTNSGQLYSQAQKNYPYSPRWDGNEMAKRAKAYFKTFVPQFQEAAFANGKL
UniProt Q53S33: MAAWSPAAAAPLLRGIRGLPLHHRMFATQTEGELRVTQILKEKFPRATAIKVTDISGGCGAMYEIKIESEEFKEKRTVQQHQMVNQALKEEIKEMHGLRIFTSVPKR
UniProt Q8WWM7: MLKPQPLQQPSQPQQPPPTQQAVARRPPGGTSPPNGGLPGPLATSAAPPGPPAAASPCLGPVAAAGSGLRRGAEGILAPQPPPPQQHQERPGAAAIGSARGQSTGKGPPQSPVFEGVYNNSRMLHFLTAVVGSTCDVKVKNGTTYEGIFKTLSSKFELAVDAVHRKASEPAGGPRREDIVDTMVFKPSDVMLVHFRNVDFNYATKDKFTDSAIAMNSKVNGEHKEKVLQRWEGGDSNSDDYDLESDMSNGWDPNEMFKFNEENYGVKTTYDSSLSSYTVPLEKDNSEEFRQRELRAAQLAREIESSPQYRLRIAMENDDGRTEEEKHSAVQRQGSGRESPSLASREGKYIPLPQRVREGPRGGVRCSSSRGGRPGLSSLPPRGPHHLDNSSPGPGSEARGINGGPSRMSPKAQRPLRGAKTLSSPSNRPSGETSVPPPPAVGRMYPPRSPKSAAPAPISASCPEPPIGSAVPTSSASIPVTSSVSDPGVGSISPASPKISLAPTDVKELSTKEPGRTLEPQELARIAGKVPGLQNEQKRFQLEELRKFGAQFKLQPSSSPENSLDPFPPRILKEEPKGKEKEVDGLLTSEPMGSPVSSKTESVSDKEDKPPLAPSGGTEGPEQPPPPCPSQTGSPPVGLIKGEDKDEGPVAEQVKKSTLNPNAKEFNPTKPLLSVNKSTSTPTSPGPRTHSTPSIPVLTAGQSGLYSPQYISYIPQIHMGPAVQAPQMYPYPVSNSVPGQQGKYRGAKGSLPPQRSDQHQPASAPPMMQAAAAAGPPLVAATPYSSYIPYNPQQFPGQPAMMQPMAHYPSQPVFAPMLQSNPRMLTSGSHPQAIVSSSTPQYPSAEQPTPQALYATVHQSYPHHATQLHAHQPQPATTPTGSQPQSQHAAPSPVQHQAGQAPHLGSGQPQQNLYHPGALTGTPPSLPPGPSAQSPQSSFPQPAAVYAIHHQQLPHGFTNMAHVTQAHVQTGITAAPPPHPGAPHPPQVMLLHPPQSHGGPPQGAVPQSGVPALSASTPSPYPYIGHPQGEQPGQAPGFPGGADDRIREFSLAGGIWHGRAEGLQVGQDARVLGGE
UniProt Q9NWV8, whole entry, looked up: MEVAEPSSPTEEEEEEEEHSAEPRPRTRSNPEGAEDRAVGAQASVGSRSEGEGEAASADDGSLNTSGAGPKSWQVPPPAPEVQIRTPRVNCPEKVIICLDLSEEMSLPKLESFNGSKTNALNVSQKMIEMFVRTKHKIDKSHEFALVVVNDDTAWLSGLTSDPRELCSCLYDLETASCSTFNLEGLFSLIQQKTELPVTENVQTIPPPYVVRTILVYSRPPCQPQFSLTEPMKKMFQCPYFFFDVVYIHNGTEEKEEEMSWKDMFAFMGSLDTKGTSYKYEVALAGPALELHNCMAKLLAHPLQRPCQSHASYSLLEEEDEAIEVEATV
UniProt O94766: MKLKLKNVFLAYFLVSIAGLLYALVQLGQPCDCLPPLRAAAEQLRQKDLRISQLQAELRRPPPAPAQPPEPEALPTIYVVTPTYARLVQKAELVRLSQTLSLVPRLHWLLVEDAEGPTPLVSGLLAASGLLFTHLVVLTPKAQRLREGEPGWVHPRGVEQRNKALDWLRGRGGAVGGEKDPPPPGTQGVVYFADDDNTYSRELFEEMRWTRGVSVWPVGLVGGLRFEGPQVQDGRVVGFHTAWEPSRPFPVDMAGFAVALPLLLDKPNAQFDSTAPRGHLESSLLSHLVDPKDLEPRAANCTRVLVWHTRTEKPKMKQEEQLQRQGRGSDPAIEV
UniProt O95429: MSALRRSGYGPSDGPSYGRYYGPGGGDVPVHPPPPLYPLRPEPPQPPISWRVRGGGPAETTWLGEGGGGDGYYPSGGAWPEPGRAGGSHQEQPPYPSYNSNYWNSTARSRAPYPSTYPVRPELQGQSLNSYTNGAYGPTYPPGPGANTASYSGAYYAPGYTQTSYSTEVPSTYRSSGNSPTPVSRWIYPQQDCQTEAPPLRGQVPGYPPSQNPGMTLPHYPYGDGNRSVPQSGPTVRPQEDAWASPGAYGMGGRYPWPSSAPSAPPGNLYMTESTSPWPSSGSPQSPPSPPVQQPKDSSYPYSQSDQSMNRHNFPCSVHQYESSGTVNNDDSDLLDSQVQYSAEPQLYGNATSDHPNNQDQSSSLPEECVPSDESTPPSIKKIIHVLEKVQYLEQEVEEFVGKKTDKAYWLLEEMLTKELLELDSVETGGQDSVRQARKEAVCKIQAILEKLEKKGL
UniProt Q99933: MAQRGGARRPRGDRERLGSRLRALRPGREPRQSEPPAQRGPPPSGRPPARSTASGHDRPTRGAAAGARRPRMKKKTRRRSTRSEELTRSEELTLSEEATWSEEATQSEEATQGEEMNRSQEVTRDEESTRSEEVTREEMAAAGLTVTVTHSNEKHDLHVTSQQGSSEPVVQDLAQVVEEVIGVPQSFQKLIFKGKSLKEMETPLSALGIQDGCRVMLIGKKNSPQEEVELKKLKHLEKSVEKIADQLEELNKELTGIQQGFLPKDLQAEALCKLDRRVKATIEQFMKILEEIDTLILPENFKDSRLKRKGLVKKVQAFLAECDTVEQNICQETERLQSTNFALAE
UniProt Q9UBB4: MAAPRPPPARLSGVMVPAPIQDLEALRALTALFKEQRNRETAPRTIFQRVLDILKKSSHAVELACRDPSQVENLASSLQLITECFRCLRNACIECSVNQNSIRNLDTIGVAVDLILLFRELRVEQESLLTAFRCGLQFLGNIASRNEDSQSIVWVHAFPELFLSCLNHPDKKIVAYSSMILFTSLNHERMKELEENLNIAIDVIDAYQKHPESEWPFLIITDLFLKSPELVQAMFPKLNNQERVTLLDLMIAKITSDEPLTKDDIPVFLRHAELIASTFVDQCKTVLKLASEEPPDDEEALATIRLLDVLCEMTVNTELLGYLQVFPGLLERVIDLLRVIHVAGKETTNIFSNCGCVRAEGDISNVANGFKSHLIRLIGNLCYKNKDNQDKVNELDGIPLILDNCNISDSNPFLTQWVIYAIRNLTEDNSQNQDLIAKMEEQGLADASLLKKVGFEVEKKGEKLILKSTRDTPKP
UniProt Q9NY97: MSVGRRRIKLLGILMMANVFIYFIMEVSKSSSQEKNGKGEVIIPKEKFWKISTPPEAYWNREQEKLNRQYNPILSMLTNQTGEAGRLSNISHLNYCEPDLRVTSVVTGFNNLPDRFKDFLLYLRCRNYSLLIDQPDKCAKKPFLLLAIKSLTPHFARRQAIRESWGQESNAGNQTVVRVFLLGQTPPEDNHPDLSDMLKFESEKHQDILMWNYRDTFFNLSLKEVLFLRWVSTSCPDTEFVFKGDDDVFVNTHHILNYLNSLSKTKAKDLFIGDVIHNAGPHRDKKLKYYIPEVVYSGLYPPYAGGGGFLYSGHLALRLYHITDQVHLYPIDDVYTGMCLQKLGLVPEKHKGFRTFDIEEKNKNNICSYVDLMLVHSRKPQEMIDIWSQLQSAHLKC
UniProt Q9UL45: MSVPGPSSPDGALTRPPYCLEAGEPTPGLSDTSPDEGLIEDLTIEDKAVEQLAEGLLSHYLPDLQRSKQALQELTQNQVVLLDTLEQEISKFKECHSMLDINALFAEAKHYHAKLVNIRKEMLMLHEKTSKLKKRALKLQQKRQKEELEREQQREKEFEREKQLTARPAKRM
UniProt Q96GS4: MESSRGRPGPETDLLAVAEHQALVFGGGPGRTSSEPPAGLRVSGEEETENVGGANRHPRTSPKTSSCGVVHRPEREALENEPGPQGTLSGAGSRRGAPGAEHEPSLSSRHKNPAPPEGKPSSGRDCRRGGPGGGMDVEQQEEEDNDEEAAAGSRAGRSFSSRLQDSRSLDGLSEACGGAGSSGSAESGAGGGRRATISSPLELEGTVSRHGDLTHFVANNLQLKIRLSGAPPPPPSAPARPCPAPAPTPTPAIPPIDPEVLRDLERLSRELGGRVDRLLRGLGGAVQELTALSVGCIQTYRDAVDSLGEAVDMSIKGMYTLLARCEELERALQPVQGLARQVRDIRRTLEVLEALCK
UniProt Q9Y276: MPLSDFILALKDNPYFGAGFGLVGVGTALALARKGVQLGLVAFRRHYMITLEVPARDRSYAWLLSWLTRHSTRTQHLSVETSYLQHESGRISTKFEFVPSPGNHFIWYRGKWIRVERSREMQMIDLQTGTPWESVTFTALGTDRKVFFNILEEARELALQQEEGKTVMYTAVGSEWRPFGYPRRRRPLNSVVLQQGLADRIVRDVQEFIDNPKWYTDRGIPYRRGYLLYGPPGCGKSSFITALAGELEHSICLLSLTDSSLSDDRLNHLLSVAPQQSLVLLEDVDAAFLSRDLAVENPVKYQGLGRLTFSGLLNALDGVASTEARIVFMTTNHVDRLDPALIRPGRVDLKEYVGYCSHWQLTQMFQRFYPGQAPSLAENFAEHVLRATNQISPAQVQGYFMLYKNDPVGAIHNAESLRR
UniProt Q9H3K6: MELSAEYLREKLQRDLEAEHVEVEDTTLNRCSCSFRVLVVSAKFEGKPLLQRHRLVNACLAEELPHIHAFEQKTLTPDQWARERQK
UniProt P78537: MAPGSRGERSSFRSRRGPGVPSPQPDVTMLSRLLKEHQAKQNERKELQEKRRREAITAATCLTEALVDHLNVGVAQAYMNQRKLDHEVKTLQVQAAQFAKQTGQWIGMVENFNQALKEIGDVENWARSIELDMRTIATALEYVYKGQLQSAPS
UniProt Q9BXH1: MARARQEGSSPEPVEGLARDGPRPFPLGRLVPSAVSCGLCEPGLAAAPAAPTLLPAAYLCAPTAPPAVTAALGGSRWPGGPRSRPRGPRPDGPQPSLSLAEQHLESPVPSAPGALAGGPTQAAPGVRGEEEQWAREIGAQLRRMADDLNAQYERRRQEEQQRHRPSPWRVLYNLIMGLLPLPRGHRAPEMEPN
UniProt Q9Y679: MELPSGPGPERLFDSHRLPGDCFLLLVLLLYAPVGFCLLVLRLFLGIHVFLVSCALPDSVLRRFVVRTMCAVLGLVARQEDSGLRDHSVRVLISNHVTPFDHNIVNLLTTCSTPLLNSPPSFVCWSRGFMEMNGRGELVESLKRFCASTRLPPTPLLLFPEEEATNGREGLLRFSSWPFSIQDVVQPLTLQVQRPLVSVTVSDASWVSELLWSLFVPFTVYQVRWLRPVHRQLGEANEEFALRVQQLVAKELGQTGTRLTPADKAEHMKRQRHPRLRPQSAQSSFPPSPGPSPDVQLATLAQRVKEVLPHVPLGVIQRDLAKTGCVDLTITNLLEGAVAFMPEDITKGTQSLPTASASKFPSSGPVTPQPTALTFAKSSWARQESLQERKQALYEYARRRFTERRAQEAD
UniProt Q9UL15: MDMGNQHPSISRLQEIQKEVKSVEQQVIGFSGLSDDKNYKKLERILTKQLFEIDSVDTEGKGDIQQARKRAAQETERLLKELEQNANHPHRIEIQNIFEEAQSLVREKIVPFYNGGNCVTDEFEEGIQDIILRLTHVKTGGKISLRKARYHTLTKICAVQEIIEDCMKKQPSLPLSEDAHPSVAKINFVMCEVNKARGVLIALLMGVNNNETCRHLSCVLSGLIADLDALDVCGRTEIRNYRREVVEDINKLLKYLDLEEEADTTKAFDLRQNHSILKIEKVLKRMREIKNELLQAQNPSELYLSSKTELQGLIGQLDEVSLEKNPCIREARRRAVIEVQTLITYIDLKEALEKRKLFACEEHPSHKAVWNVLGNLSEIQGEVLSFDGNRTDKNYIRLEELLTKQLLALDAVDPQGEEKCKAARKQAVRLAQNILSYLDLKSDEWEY

Experiments:
Assay in all cases: log2 fold change, soluble protein after heating vs DMSO (PISA); higher = thermal stabilisation; K562 cells, 10 uM, 30 min; active = over 0.2 and 3.5 SD of the protein, either way, in both replicates (recomputed)
[1] = compound: CC[C@@H]1C(=O)N(C)c2cnc(Nc3ccc(C(=O)NC4CCN(C)CC4)cc3OC)nc2N1C1CCCC1
Method in brief: (§1)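 K562 cells at 2×10^6 cells/mL were exposed to 10 μM compound for 30 min, then aliquots were heated for 3 min across 48°C-58°C, pooled, and extracted in PBS containing 0.5% NP-40 at 4°C. The supernatant after 21,000xg for 90 min was taken as soluble protein and measured by TMTpro 16plex LC-MS/MS with channel sums equalised. Thermal stability is reported relative to control samples, with values from duplicates. Fold changes are given on a log2 scale.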

volasertib = compound: CC[C@@H]1C(=O)N(C)c2cnc(Nc3ccc(C(=O)N[C@H]4CC[C@H](N5CCN(CC6CC6)CC5)CC4)cc3OC)nc2N1C(C)C [volasertib]
Method in brief: as §1

[2] = compound: CC[C@H](C)N1C=C(C2=C(C=C(C=C21)C3=CN=C(C=C3)N4CCNCC4)C(=O)NCC5=C(C=C(NC5=O)C)C)C
Method in brief: as §1

epoxomicin = compound: CC[C@H](C)[C@@H](C(=O)N[C@@H]([C@@H](C)O)C(=O)N[C@@H](CC(C)C)C(=O)[C@]1(CO1)C)NC(=O)[C@H]([C@@H](C)CC)N(C)C(=O)C [epoxomicin]
Method in brief: as §1

[3] = compound: CCn1c(C(=O)N(C2CC2)C2CC2)cc2c3c(ncn3C)c(Nc3cc(C)n(C)n3)nc21
Method in brief: as §1

[4] = compound: CCn1cc(-c2ccnc3[nH]c(-c4cccc(CN(C)C)c4)cc23)c(-c2ccc(NC(=O)N(C)C)cc2)n1
Method in brief: as §1

[5] = compound: CN(C)CC(=O)Nc1ccc2[nH]c(=O)c3ccccc3c2c1
Method in brief: as §1

rosiglitazone = compound: CN(CCOC1=CC=C(C=C1)C[C@H]2C(=O)NC(=O)S2)C3=CC=CC=N3 (racemic) [rosiglitazone]
Method in brief: as §1

[6] = compound: CN1C2=C(C3=C1C(=O)N(N=C3)CC4=CC(=CC=C4)N)SC(=C2)S(=O)C
Method in brief: as §1

[7] = compound: CN1CCC(CNc2ccc3ncc(-c4cccc(OC(F)(F)F)c4)n3n2)CC1
Method in brief: as §1

Measured: log2 fold change

BAG6 isoform 3 (UniProt P46379)
inactive: [1] -0.05 | volasertib -0.173 | [2] 0.058 | epoxomicin 0.03 | [3] -0.009 | [4] 0.005 | [5] 0.006 | rosiglitazone 0.036 | [6] 0.019 | [7] -0.039

BLMH (UniProt Q13867)
inactive: [1] 0.019 | volasertib 0.033 | [2] 0.133 | epoxomicin 0.065 | [3] 0.001 | [4] 0.011 | [5] 0.051 | rosiglitazone -0.046 | [6] -0.031 | [7] 0.011

BABAM2 (UniProt Q9NXR7)
inactive: [1] 0.038 | volasertib 0.107 | [2] -0.052 | epoxomicin -0.06 | [3] 0.023 | [4] -0.026 | [5] 0.012 | rosiglitazone -0.007 | [6] 0.001 | [7] 0.019

BOLA3 (UniProt Q53S33)
inactive: [1] -0.002 | volasertib 0.062 | [2] -0.003 | epoxomicin 0.02 | [3] -0.018 | [4] 0.063 | [5] -0.013 | rosiglitazone 0.012 | [6] -0.027 | [7] 0.035

ATXN2L (UniProt Q8WWM7)
inactive: [1] -0.015 | volasertib -0.031 | [2] 0.021 | epoxomicin 0 | [3] -0.007 | [4] 0.021 | [5] -0.021 | rosiglitazone 0.007 | [6] 0.017 | [7] -0.029

ATRIP (UniProt Q8WXE1)
inactive: [1] 0.121 | volasertib -0.182 | [2] 0.003 | epoxomicin -0.215 | [3] 0.026 | [4] 0.046 | [5] -0.01 | rosiglitazone -0.001 | [6] -0.042 | [7] -0.055

BCAS1 (UniProt O75363)
inactive: [1] 0.085 | volasertib 0.031 | [2] -0.09 | epoxomicin 0.054 | [3] -0.021 | [4] 0.052 | [5] -0.061 | rosiglitazone 0.151 | [6] -0.074 | [7] -0.029

BAX isoform 2 (UniProt Q07812)
inactive: [1] 0.017 | volasertib -0.007 | [2] -0.055 | epoxomicin 0.026 | [3] 0.004 | [4] 0.025 | [5] 0.049 | rosiglitazone 0.014 | [6] -0.037 | [7] 0.035

BABAM1 (UniProt Q9NWV8)
inactive: [1] 0.026 | volasertib 0.02 | [2] -0.055 | epoxomicin 0.03 | [3] -0.017 | [4] 0.064 | [5] -0.039 | rosiglitazone 0 | [6] 0.055 | [7] 0.019

BIRC2 (UniProt Q13490)
inactive: [1] -0.027 | volasertib -0.094 | [2] 0.011 | epoxomicin 0.02 | [3] -0.017 | [4] -0.036 | [5] 0.023 | rosiglitazone 0.091 | [6] 0.035 | [7] -0.108

B3GAT3 (UniProt O94766)
inactive: [1] -0.068 | volasertib -0.112 | [2] 0 | epoxomicin -0.019 | [3] -0.036 | [4] 0.028 | [5] -0.146 | rosiglitazone -0.108 | [6] -0.057 | [7] 0.121

Copied from the results shown (three entries):
BCAS1 (UniProt O75363)
inactive: [1] 0.085 | volasertib 0.031 | [2] -0.09 | epoxomicin 0.054 | [3] -0.021 | [4] 0.052 | [5] -0.061 | rosiglitazone 0.151 | [6] -0.074 | [7] -0.029

BAX isoform 2 (UniProt Q07812)
inactive: [1] 0.017 | volasertib -0.007 | [2] -0.055 | epoxomicin 0.026 | [3] 0.004 | [4] 0.025 | [5] 0.049 | rosiglitazone 0.014 | [6] -0.037 | [7] 0.035

BABAM1 (UniProt Q9NWV8)
inactive: [1] 0.026 | volasertib 0.02 | [2] -0.055 | epoxomicin 0.03 | [3] -0.017 | [4] 0.064 | [5] -0.039 | rosiglitazone 0 | [6] 0.055 | [7] 0.019

Remaining list, next part

BAG4 (UniProt O95429)
inactive: [1] -0.015 | volasertib -0.061 | [2] 0.047 | epoxomicin 0.023 | [3] 0.089 | [4] -0.022 | [5] -0.03 | rosiglitazone 0.056 | [6] -0.112 | [7] -0.052

BAG1 (UniProt Q99933)
inactive: [1] 0.037 | volasertib -0.022 | [2] 0.004 | epoxomicin -0.022 | [3] 0.017 | [4] -0.012 | [5] 0.001 | rosiglitazone -0.002 | [6] 0.025 | [7] 0.021

BMS1 (UniProt Q14692)
inactive: [1] 0.114 | volasertib 0.058 | [2] 0.035 | epoxomicin -0.127 | [3] -0.044 | [4] 0.146 | [5] -0.077 | rosiglitazone -0.098 | [6] 0.235 | [7] 0.222

BRCC3 (UniProt P46736)
inactive: [1] 0.063 | volasertib 0.095 | [2] -0.048 | epoxomicin -0.081 | [3] 0.001 | [4] 0.027 | [5] -0.039 | rosiglitazone -0.011 | [6] 0.005 | [7] 0.096

ATXN10 (UniProt Q9UBB4)
inactive: [1] -0.004 | volasertib -0.08 | [2] 0.008 | epoxomicin 0.025 | [3] 0 | [4] -0.037 | [5] 0 | rosiglitazone 0.028 | [6] -0.066 | [7] -0.032

BPGM (UniProt P07738)
inactive: [1] 0.028 | volasertib 0.027 | [2] -0.022 | epoxomicin -0.004 | [3] -0.046 | [4] -0.011 | [5] 0.041 | rosiglitazone 0.024 | [6] -0.069 | [7] -0.018

B3GNT2 (UniProt Q9NY97)
inactive: [1] -0.164 | volasertib -0.196 | [2] 0.133 | epoxomicin 0.04 | [3] 0.013 | [4] 0.03 | [5] -0.023 | rosiglitazone 0.039 | [6] -0.104 | [7] -0.021

BLOC1S6 (UniProt Q9UL45)
inactive: [1] -0.058 | volasertib 0.056 | [2] 0.145 | epoxomicin 0.033 | [3] 0.279 | [5] -0.079 | rosiglitazone -0.007 | [6] -0.079

BORCS6 (UniProt Q96GS4)
inactive: [1] -0.033 | volasertib -0.1 | [2] 0.041 | epoxomicin 0.143 | [3] 0.047 | [4] -0.108 | [5] 0.002 | rosiglitazone 0.023 | [6] -0.111 | [7] -0.176

BRAP (UniProt Q7Z569)
inactive: [1] -0.092 | volasertib -0.23 | [2] 0.033 | epoxomicin -0.093 | [4] 0.086 | [5] 0.02 | [6] 0.06 | [7] -0.158

BIRC5 (UniProt O15392)
inactive: [1] 0.072 | volasertib 0.037 | [2] -0.058 | epoxomicin 0.096 | [3] -0.011 | [5] -0.047 | rosiglitazone -0.022 | [6] 0.084

BNIP3 (UniProt Q12983)
inactive: [1] 0.011 | volasertib -0.261 | [2] -0.017 | epoxomicin 0.145 | [4] 0.085 | [5] 0.052 | rosiglitazone 0.051 | [7] -0.199

BRI3BP (UniProt Q8WY22)
inactive: [1] 0.022 | volasertib 0.038 | [2] -0.005 | epoxomicin 0.048 | [3] -0.095 | [5] -0.022 | rosiglitazone -0.065 | [6] 0.04

BCS1L (UniProt Q9Y276)
inactive: [1] 0.022 | volasertib 0.031 | [2] -0.003 | epoxomicin -0.003 | [3] 0.003 | [4] -0.059 | [5] -0.028 | rosiglitazone 0.021 | [6] -0.028 | [7] 0.059

BOLA2 (UniProt Q9H3K6)
inactive: [1] -0.094 | volasertib -0.096 | [2] 0.037 | epoxomicin 0.047 | [3] 0.029 | [4] -0.035 | [5] 0.01 | rosiglitazone 0.009 | [6] -0.073 | [7] 0.006

BLOC1S1 (UniProt P78537)
inactive: [1] -0.011 | volasertib -0.018 | [2] -0.002 | epoxomicin 0.12 | [3] 0.018 | [4] -0.047 | [5] -0.028 | rosiglitazone 0.026 | [6] -0.083 | [7] 0.063

BRD4 (UniProt O60885)
inactive: [2] -0.007 | epoxomicin 0.136 | [5] 0.169 | [6] -0.09 | [7] -0.062
active: [1] 1.89 | volasertib 2.02 | [4] 0.597

BBC3 (UniProt Q9BXH1)
inactive: [1] -0.01 | volasertib 0.111 | [2] -0.135 | epoxomicin 0.013 | [3] 0.047 | [4] -0.041 | [5] -0.057 | rosiglitazone 0.062 | [6] 0.022 | [7] 0.03

AUP1 (UniProt Q9Y679)
active: [7] -0.24
inactive: [1] -0.132 | volasertib -0.253 | [2] 0.032 | epoxomicin 0.046 | [4] -0.028 | [5] 0.089 | [6] 0.014

BAG5 isoform 2 (UniProt Q9UL15)
inactive: [1] -0.111 | volasertib -0.092 | [2] 0.135 | epoxomicin 0.015 | [3] -0.017 | [4] -0.034 | [5] -0.065 | rosiglitazone -0.019 | [7] -0.002
